{"source": "PubChem BioAssay AID540276", "about": "(National Center for Advancing Translational Sciences (NCATS), 2011)", "note": "Among all 300,000 compounds or so, about 5,400 (1.8%) were called active. The shares of active, inactive and inconclusive entries below differ from those in the screen. Calls come from the whole dose curve; tested in HEK293 cells. Where the call is inconclusive, the potency comes from a doubtful curve fit.", "data": [{"assay": "qHTS for inhibitors of binding or entry into cells for Marburg Virus; note: potency is the fitted concentration of half-maximal effect; for activity change, negative = inhibition: % is set by controls: 0 for no effect and ±100 for the full control effect", "settings": "Marburg virus pseudotyped entry inhibition, cell reporter; activity change, negative = inhibition: at 37.8 µM (top of the series) unless noted", "values": [{"molecule": "CCCOc1ccc(N2C(=O)CC(N(CCC)C(=O)CCC(=O)O)C2=O)cc1", "note": "(centres undefined)", "activity change, negative = inhibition": "inactive: 22.5%"}, {"molecule": "Cc1cc2cc3c(cc2nc1SCC(=O)N1c2ccccc2CC1C)OCO3", "note": "(centres undefined)", "Potency": "inconclusive: 20 µM [inhibitor, partial curve, poor fit]"}, {"molecule": "CCOc1ccc(CN2CCNC(=O)C2CC(=O)O)cc1", "note": "(centres undefined)", "activity change, negative = inhibition": "inactive: 3.66% [at 46.1 µM]"}, {"molecule": "COc1ccc(C(=O)N2CCN(c3ccc(NC(=O)Cc4ccccc4)cc3)CC2)cc1", "Potency": "inconclusive: 1.26 µM [inhibitor, single point]"}, {"molecule": "Cc1cc(C(=O)N2CCc3ccccc32)c2cc(F)ccc2n1", "Potency": "inconclusive: 0.631 µM [inhibitor, full curve, poor fit]"}, {"molecule": "NC(=O)C1(N2CCCCC2)CCN(C(=O)CSc2nc3ccccc3o2)CC1", "Potency": "inconclusive: 35.5 µM [activator, single point]"}, {"molecule": "O=Nc1c(O)[nH]c2ccc(Cl)c(Cl)c12", "Potency": "inconclusive: 11.2 µM [inhibitor, partial curve, poor fit]"}, {"molecule": "COc1ccc(/C(O)=C/C(=O)C(=O)NNC(=O)C(O)(c2ccccc2)c2ccccc2)cc1", "Potency": "inconclusive: 0.1 µM [activator, full curve, poor fit]"}, {"molecule": "Cc1[nH]c(=O)c(C#N)cc1-c1ccc2nccn2c1", "Potency": "inconclusive: 0.447 µM [inhibitor, full curve]"}, {"molecule": "Cc1sc2nc(C3CC3)nc(SCC(=O)N3CC(=O)Nc4ccccc43)c2c1C", "Potency": "inconclusive: 29.1 µM [inhibitor, single point]"}, {"molecule": "Clc1ccccc1-c1nc2ccccc2c2nncn12", "Potency": "inconclusive: 6.51 µM [inhibitor, single point]"}, {"molecule": "COc1ccc(N(C)C(=O)Cn2cc(S(=O)(=O)N3CCN(c4ccccc4F)CC3)c3ccccc3c2=O)c(OC)c1", "Potency": "inconclusive: 12.6 µM [inhibitor, partial curve, poor fit]"}, {"molecule": "COc1ccc(-c2nc(-c3ccccc3)oc2Nc2ccc3ccccc3c2)cc1", "Potency": "inconclusive: 0.119 µM [activator, full curve]"}, {"molecule": "COc1ccc(C(=O)Nn2c(C)ccc2C)cc1OC", "activity change, negative = inhibition": "inactive: -1.08%"}, {"molecule": "CCCCOC(=O)c1ccc(NC(=O)c2sc3nc(C)cc(C)c3c2N)cc1", "Potency": "inconclusive: 7.08 µM [activator, single point]"}, {"molecule": "CC(Sc1nc(-c2ccccc2)cc(C(F)(F)F)n1)C(=O)N1CCOCC1", "note": "(centres undefined)", "Potency": "inconclusive: 3.16 µM [inhibitor, single point]"}, {"molecule": "O=C(Cn1c(=O)nc(-c2ccccc2)c2ccccc21)Nc1ccc(Cl)cc1F", "activity change, negative = inhibition": "inactive: 2.29% [at 46.1 µM]"}, {"molecule": "CN(c1ccccc1)S(=O)(=O)c1cccc(C(=O)Nc2ccc(N3CCOCC3)cc2)c1", "Potency": "inconclusive: 11.2 µM [inhibitor, single point]"}, {"molecule": "Cc1cccc(NC(=S)NCCc2ccccc2)n1", "Potency": "inconclusive: 11.2 µM [inhibitor, partial curve, poor fit]"}, {"molecule": "O=C(NCCCOc1cccc(CN2CCCCC2)c1)c1ccc(Cl)c(Cl)c1", "Potency": "inconclusive: 11.2 µM [inhibitor, partial curve, poor fit]"}, {"molecule": "Cc1nc2ccc(NC(=S)NC(C)C)cc2nc1C", "Potency": "inconclusive: 0.0058 µM [inhibitor, full curve, poor fit]"}, {"molecule": "CC(=O)NC12CC3CC(C1)CC(C(=O)N1CCN(S(=O)(=O)c4ccc(C(C)C)cc4)CC1)(C3)C2", "activity change, negative = inhibition": "inactive: 7.7%"}, {"molecule": "O=C(O)CCc1nc(-c2cccs2)no1", "activity change, negative = inhibition": "inactive: 19.6%"}, {"molecule": "O[C@@H]1CN=C2Sc3ccccc3N2C1", "activity change, negative = inhibition": "inactive: -9.41%"}, {"molecule": "Nc1nc(CN2CCN(c3ccccc3F)CC2)nc(Nc2ccccc2)n1", "Potency": "inconclusive: 0.259 µM [inhibitor, single point]"}, {"molecule": "COC(=O)c1ccccc1NC(=O)n1cc(C)cn1", "activity change, negative = inhibition": "inactive: 3.02%"}, {"molecule": "O=C(COC(=O)Cc1ccc(S(=O)(=O)N2CCOCC2)s1)NCc1ccccc1", "activity change, negative = inhibition": "inactive: -0.374%"}, {"molecule": "COc1cccc(CC(=O)Nc2nc(-c3cccnc3)cs2)c1", "activity change, negative = inhibition": "inactive: 3.31%"}, {"molecule": "Cn1c(SCc2ccccc2Cl)nnc1-c1cnccn1", "activity change, negative = inhibition": "inactive: 8.12%"}, {"molecule": "CCOC(=O)c1c(-c2cccs2)csc1NC(=O)CN1CCOCC1", "Potency": "inconclusive: 3.16 µM [inhibitor, partial curve, poor fit]"}, {"molecule": "CCOC(=O)c1sc(NC(=O)c2c(-c3ccccc3)c(-c3ccccc3)nn(C)c2=O)nc1C", "Potency": "inconclusive: 3.98 µM [inhibitor, partial curve]"}, {"molecule": "CC1CCN(C(=O)CSc2nc(-c3ccc(F)cc3)cc(C(F)(F)F)n2)CC1", "activity change, negative = inhibition": "inactive: 16.1% [at 46.1 µM]"}, {"molecule": "O=C(NCCc1ccc(F)cc1)C(=O)NCC1CCCN1S(=O)(=O)c1ccccc1", "note": "(centres undefined)", "Potency": "inconclusive: 3.98 µM [inhibitor, full curve, poor fit]"}, {"molecule": "c1ccc(C2=Nc3ccccc3OC2)cc1", "activity change, negative = inhibition": "inactive: 4.76%"}, {"molecule": "CN(C)/C=N/c1ncn(-c2ncc(C(F)(F)F)cc2Cl)n1", "Potency": "inconclusive: 12.6 µM [activator, partial curve, poor fit]"}, {"molecule": "NC(=O)c1cccc(-c2cccc(OC(=O)NC3CCCCC3)c2)c1", "Potency": "inconclusive: 8.91 µM [activator, partial curve, poor fit]"}, {"molecule": "CCn1nnc(NC(=O)c2ccc(Br)o2)n1", "activity change, negative = inhibition": "inactive: -1.63% [at 46.1 µM]"}, {"molecule": "NC(=O)CSc1nnc(-c2cc(-c3cccs3)nc3ccccc23)o1", "activity change, negative = inhibition": "inactive: -19.4%"}, {"molecule": "CCCn1c(N)c(C(=O)COC(=O)c2c(C)noc2C)c(=O)n(C)c1=O", "Potency": "inconclusive: 0.562 µM [inhibitor, full curve, poor fit]"}, {"molecule": "COc1ccc(N(C)S(=O)(=O)c2cccc(C(=O)Nc3ccc(-n4cnnn4)cc3)c2)cc1", "Potency": "inconclusive: 29.1 µM [inhibitor, single point]"}, {"molecule": "COc1ccc(CCNC(=O)C(=O)NCC2OCCN2S(=O)(=O)c2ccc3c(c2)OCCO3)cc1OC", "note": "(centres undefined)", "Potency": "inconclusive: 11.2 µM [inhibitor, partial curve, poor fit]"}, {"molecule": "COc1ccc(OC)c(NC(=O)CCOc2cccc(C)c2)c1", "Potency": "inconclusive: 25.1 µM [inhibitor, single point]"}, {"molecule": "CN(c1cc2c(c3c1ccn3C)C1CCC2O1)C1CCCCC1", "note": "(centres undefined)", "Potency": "inconclusive: 35.3 µM [inhibitor, single point]"}, {"molecule": "Cc1cccc(C)c1OC[C@H](O)CNS(=O)(=O)c1ccccc1C(=O)N1CCOCC1", "activity change, negative = inhibition": "inactive: 12% [at 46.1 µM]"}, {"molecule": "Cc1ccc(NC(=O)CN(C)C2CCCCC2)cc1Br", "Potency": "inconclusive: 28.2 µM [inhibitor, single point]"}, {"molecule": "[O-]/[N+](=C/c1ccc(F)cc1)c1ccccc1", "activity change, negative = inhibition": "inactive: 2.86%"}, {"molecule": "CN(C)S(=O)(=O)c1ccc(C(=O)NC(=O)CSc2ccccc2)cc1", "Potency": "inconclusive: 1.12 µM [activator, partial curve, poor fit]"}, {"molecule": "CCn1c(=NC(=O)c2ccc(S(=O)(=O)N3CCOCC3)cc2)sc2cccc(OC)c21", "Potency": "inconclusive: 17.8 µM [inhibitor, partial curve, poor fit]"}, {"molecule": "OCCN(CCO)c1ncnc2c1sc1nc(N3CCOCC3)c3c(c12)CCCC3", "Potency": "inconclusive: 20.6 µM [inhibitor, single point]"}, {"molecule": "COc1ccc2nc(C)[nH]c(=O)c2c1", "activity change, negative = inhibition": "inactive: -1.58%"}, {"molecule": "COc1cccc(NC(=O)C2CCC(CNS(=O)(=O)c3cccc4cccnc34)CC2)c1", "note": "(centres undefined)", "Potency": "inconclusive: 11.2 µM [inhibitor, partial curve, poor fit]"}, {"molecule": "COc1cccc(OC)c1C(=O)Nc1cc(C)nn1-c1nc2ccccc2[nH]1", "Potency": "inconclusive: 14.1 µM [inhibitor, partial curve, poor fit]"}, {"molecule": "CCOc1cc(/C=C(/C#N)c2nc3ccccc3[nH]2)ccc1Oc1ccc([N+](=O)[O-])cn1", "Potency": "inconclusive: 29.1 µM [inhibitor, single point]"}, {"molecule": "FC(F)(F)c1ccc(N2CCN(c3cc(-c4ccccc4)nc4ncnn34)CC2)nc1", "Potency": "inconclusive: 29.1 µM [inhibitor, single point]"}, {"molecule": "O=C(OCn1ncc(Br)c(Br)c1=O)c1c(F)cccc1F", "activity change, negative = inhibition": "inactive: 5.22%"}, {"molecule": "N=c1n(Cc2ccc(Cl)cc2)c2ccccc2n1CC(O)c1ccco1", "note": "(centres undefined)", "Potency": "inconclusive: 35.5 µM [inhibitor, single point]"}, {"molecule": "CC1=NN(c2ccccc2)C(=O)/C1=C\\C=C\\c1ccccc1", "Potency": "inconclusive: 22.4 µM [inhibitor, partial curve, poor fit]"}, {"molecule": "CCOC(=O)c1cn[nH]c1NC(=S)Nc1ccccc1", "Potency": "inconclusive: 2.82 µM [activator, partial curve, poor fit]"}, {"molecule": "COc1ccc(C)cc1N(C(=O)COc1ccccc1)c1nc2ccccc2s1", "Potency": "inconclusive: 7.08 µM [inhibitor, partial curve, poor fit]"}, {"molecule": "COc1cc2nc(CN(C)Cc3nc4ccccc4c(=O)[nH]3)[nH]c(=O)c2cc1OC", "activity change, negative = inhibition": "inactive: 6.72%"}, {"molecule": "CCCCCN(C(=O)CN1CCC(Cc2ccccc2)CC1)c1c(N)n(CCCC)c(=O)[nH]c1=O", "Potency": "active: 10 µM"}, {"molecule": "O=C(O)c1ccc(Nc2ncc([N+](=O)[O-])cc2[N+](=O)[O-])cc1", "activity change, negative = inhibition": "inactive: -2.22% [at 46.1 µM]"}, {"molecule": "COc1ccc(C(C[N+](=O)[O-])c2c(-c3ccccc3)cc3ccccn23)cc1", "note": "(centres undefined)", "activity change, negative = inhibition": "inactive: -9.77%"}, {"molecule": "CN(C)N1C(N)=C(C#N)C(c2ccccc2)C2=C1CC(C)(C)CC2=O", "note": "(centres undefined)", "activity change, negative = inhibition": "inactive: 7.88% [at 46.1 µM]"}, {"molecule": "CCc1ccc(C2C(C#N)=C(N)Oc3cc(N)ccc32)cc1", "note": "(centres undefined)", "Potency": "inconclusive: 17.8 µM [inhibitor, partial curve, poor fit]"}, {"molecule": "Cc1ccc(/C=C/c2nnc(-c3ccccc3)o2)cc1", "Potency": "inconclusive: 0.164 µM [inhibitor, full curve, poor fit]"}, {"molecule": "COc1ccc(NC2=C(c3ccc(C(F)(F)F)cc3)C(=O)c3ccccc32)cc1", "activity change, negative = inhibition": "inactive: -12.9% [at 46.1 µM]"}, {"molecule": "O=C(CCCN1C(=O)c2ccccc2C1=O)Nc1c2c(nc3c1CCC3)CCC2", "Potency": "inconclusive: 3.55 µM [inhibitor, single point]"}, {"molecule": "O=C1C(=C2SCCCS2)CC/C1=C\\c1ccc(F)cc1", "Potency": "active: 2.51 µM"}]}]}
